For at least one entry, the source does not settle the construct or the ends of the probe. For part of these data: A negative result means that nothing was seen under these conditions.
Legend:
[1] = biological target: FoxO1-PM (phospho-mimetic) (mouse) (UniProt Q9R1E0); assay: EMSA; settings: EMSA: 20 mM Tris-HCl pH 8.0, 40 mM KCl, 5% glycerol, 0.4 mM DTT, 0.2 mM EDTA, 2 mM MgCl2, 1 mg/ml BSA, 20 ng poly(dI-dC), on ice 15 min, 50 ng protein; recombinant protein; protein details: GST removed by PreScission (general method); label: 32P end label
[2] = biological target: FoxO1-PR (phospho-resistant) S209A,S215A,S218A,T228A,S232A,S243A (mouse) (UniProt Q9R1E0); assay: EMSA; settings: pre-incubated with Mst1; EMSA: 20 mM Tris-HCl pH 8.0, 40 mM KCl, 5% glycerol, 0.4 mM DTT, 0.2 mM EDTA, 2 mM MgCl2, 1 mg/ml BSA, 20 ng poly(dI-dC), on ice 15 min, 50 ng protein; recombinant protein; protein details: GST removed by PreScission (general method); label: 32P end label
FoxO1-WT (mouse) = FoxO1-WT (mouse) (UniProt Q9R1E0); assay: EMSA; settings: without Mst1; EMSA: 20 mM Tris-HCl pH 8.0, 40 mM KCl, 5% glycerol, 0.4 mM DTT, 0.2 mM EDTA, 2 mM MgCl2, 1 mg/ml BSA, 20 ng poly(dI-dC), on ice 15 min, 50 ng protein; recombinant protein; protein details: GST removed by PreScission (general method); label: 32P end label
[3] = biological target: FoxO1(S209A) + Mst1 (mouse) (UniProt Q9R1E0); assay: pull-down; settings: with Mst1; pull-down (1x buffer): 10 mM HEPES pH 8, 50 mM KCl, 2.5 mM MgCl2, 1 mM EDTA, 1 mM DTT, 0.1% IGEPAL, 4 C 2 h; recombinant protein; label: 5' biotin on sense strand
[4] = biological target: FoxO1-PM (phospho-mimetic) (mouse) (UniProt Q9R1E0); assay: pull-down; settings: pull-down (1x buffer): 10 mM HEPES pH 8, 50 mM KCl, 2.5 mM MgCl2, 1 mM EDTA, 1 mM DTT, 0.1% IGEPAL, 4 C 2 h; recombinant protein; protein details: GST removed by PreScission (general method); label: 5' biotin on sense strand
[5] = biological target: FoxO1-PR (phospho-resistant) S209A,S215A,S218A,T228A,S232A,S243A (mouse) (UniProt Q9R1E0); assay: pull-down; settings: with Mst1; pull-down (1x buffer): 10 mM HEPES pH 8, 50 mM KCl, 2.5 mM MgCl2, 1 mM EDTA, 1 mM DTT, 0.1% IGEPAL, 4 C 2 h; recombinant protein; protein details: GST removed by PreScission (general method); label: 5' biotin on sense strand

| Sequence | binding result [1] | binding result [2] | binding result (FoxO1-WT (mouse)) | binding result [3] | binding result [4] | binding result [5] |
| --- | --- | --- | --- | --- | --- | --- |
| CCTTGTTTACGGGTTGTTTACGGGTTGTTTACCC (double strand) [3xDBE EMSA probe] | no binding | binds | binds |  |  |  |
| CCTTGTTTACGGGTTGTTTACGGGTTGTTTACCC (double strand) [WT-3xDBE (Biotin-FHRE-wild type)] |  |  |  | no binding | no binding | binds |
